These results are taken from PMC9284225.

Series [1] has as its system GST-BcWRKY1 (Baphicacanthus cusia). Put plainly: EMSA. To be noted: LightShift Chemiluminescent EMSA kit (Thermo Scientific), manufacturer's instructions; pH and temperature not stated; recombinant protein; protein details: N-terminal GST (pGEX-4T-1). On the technique in general: A gel shift assay detects complexes by their altered migration in electrophoresis.
Series [2] has the same test system. Put plainly: competition with a labelled probe. The note with it: unlabeled competitor attenuates binding to biotin-labeled N1; LightShift Chemiluminescent EMSA kit (Thermo Scientific), manufacturer's instructions; pH and temperature not stated; recombinant protein; protein details: N-terminal GST (pGEX-4T-1).

The exact form of at least one protein or probe is not confirmed.

Regarding “ATGGCGCCATTTGACTAGCGTAGTTTGACCGCTCATGAACA (double strand) [W-box probe]”, the binding result in series [1] is given as “binds”.

Regarding “ATGGCGCCATTTGACTAGCGTAGTTTGACCGCTCATGAACA (double strand) [unlabeled W-box competitor]”, the binding result in series [2] is given as “binds”.
